The supplement of paper PMC3334620
Whole data set: some 33,000 sequences, median “E-score (-0.5 to 0.5)” near -8e-05, cut for the highest 2% near 0.23. This is one part of the list.

Molecular target: T1, Nrg2 (UniProt P38082)
T1 sequence: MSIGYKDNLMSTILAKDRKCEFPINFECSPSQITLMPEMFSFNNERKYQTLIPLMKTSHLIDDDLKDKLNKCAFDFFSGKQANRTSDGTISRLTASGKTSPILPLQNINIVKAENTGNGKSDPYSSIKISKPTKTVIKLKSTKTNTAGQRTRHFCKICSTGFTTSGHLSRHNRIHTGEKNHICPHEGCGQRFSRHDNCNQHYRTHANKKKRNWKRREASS
Test: PBM E-score (8-mer binding enrichment) (E-score (-0.5 to 0.5)); higher = stronger / more preferred TF binding
Conditions: protein concentration: 100 nM; construct: GST-full length
Procedure, shortened: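 Yeast transcription factors carrying a GST tag, as full-length proteins or DNA-binding domains, were produced by PURExpress in vitro transcription/translation. About 100-200 nM protein was applied to universal all-10-mer Agilent arrays, double-stranded by primer extension on fresh or once-stripped slides. Bound protein was detected with fluorescent anti-GST, and scans were normalised with masliner. The Universal PBM Analysis Suite gave each ungapped eight-base word, pooled with its reverse complement, an E-score, a modified Wilcoxon-Mann-Whitney statistic.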

Row | Sequence | PBM E-score
1 | ATGGCTCA | 0.0166
2 | AATGTCCT | -0.173
3 | AGCTGAAA | 0.0993
4 | GTAGGCCA | 0.0112
5 | CAGTGGCG | 0.0347
6 | AGATGCTC | -0.00609
7 | ACGTGTTG | -0.157
8 | CGTCCCAG | -0.162
9 | CGACATAA | 0.0746
10 | GAAGTTGC | -0.173
11 | AGCTATAC | -0.101
12 | ACCGATGG | -0.0725
13 | CTCGCAGC | -0.0795
14 | GATAACAA | 0.12
15 | GATGGCCC | -0.165
16 | GAAGACTA | 0.0486
17 | GCTACTTA | -0.0897
18 | ATGGCGTA | -0.0674
19 | ACTAACGG | -0.171
20 | CGCTCGAG | 0.17
21 | AGGGTGGC | 0.0781
22 | GCGTCCCC | -0.0906
23 | CATGGTGA | -0.0162
24 | ACTCGCCT | 0.063
25 | GACTGAGA | -0.102

Row | Sequence | PBM E-score
26 | CTACTCCA | 0.0521
27 | ACCGACCT | -0.00096
28 | CCCTAGTA | 0.00391
29 | CTCCACGC | -0.147
30 | CTACCTAA | 0.0556
31 | GGAATGTA | 0.0991
32 | GACTCTGC | 0.0281
33 | AAAACTAC | 0.152
34 | AGCTGGAC | -0.109
35 | AAAAGGAA | -0.0391
36 | GGGCCAAC | -0.13
37 | CTTTGGCA | -0.295
38 | AACAGGAT | 0.00796
39 | CCAATGTC | -0.167
40 | ACCGGACC | -0.13
41 | CCCAGGGC | -0.0217
42 | GGTCAAAA | 0.0984
43 | CATGGCTC | 0.0158
44 | CATGTGAA | 0.00961
45 | ACCAATAG | -0.169
46 | CCTCTGCC | -0.176
47 | AAGCACCA | -0.106
48 | AATGCCCG | -0.0464
49 | CGAATGTC | 0.0289
50 | AGTGCTTG | -0.0643

Row | Sequence | PBM E-score
51 | AACATACG | 0.0129
52 | CTCTCCTA | -0.134
53 | ATTTGCCG | 0.03
54 | GAATAGCC | -0.107
55 | GAAGGACC | -0.0588
56 | AGTGGTTG | 0.0225
57 | ACGGCGTG | 0.0673
58 | CGAGTTTC | 0.155
59 | GAGGCTAC | -0.265
60 | AATAGGCA | 0.158
61 | ATGAACAA | 0.13
62 | AACAGCGA | -0.205
63 | AGCTGTAT | -0.146
64 | GGACGCGA | 0.0612
65 | CCGCTAGC | -0.16
66 | TAGCAACA | 0.135
67 | ACCTTACC | 0.143
68 | ACGAAGGA | -0.0183
69 | ACTGTAGG | 0.116
70 | TCATTAAA | 0.35
71 | CTTACGTC | -0.182
72 | AAAGGTCG | -0.137
73 | GTTATGGA | 0.223
74 | CTTAGTAA | 0.0233
75 | TCTTAAAA | -0.118

Row | Sequence | PBM E-score
76 | TCCATGCA | 0.0936
77 | AGCACGCT | -0.147
78 | ACTCTACA | -0.053
79 | CACTCCGA | -0.0556
80 | CCGCAGGA | -0.151
81 | CGAGCCTC | -0.209
82 | CGCCGATA | 0.0331
83 | ACGCCTCT | -0.123
84 | ACGAAGGC | -0.203
85 | ATCGCGCG | 0.241
86 | ACCGAAGC | -0.0884
87 | AGGCGACC | -0.165
88 | GATCATCA | -0.123
89 | TCACCTGA | -0.0956
90 | ATCGATCA | 0.103
91 | ACAGAAGT | -0.0546
92 | CCGTAAAC | 0.00547
93 | CCATGGAC | 0.00514
94 | GCCAGCCC | -0.209
95 | ATGTGGGA | -0.0781
96 | GAACATTC | 0.0939
97 | GCTGTACA | -0.0814
98 | AATTTGCG | 0.157
99 | CGAGGGTC | 0.0765
100 | GAGGCGAA | 0.106

In a second layout: results already given.

| Row | Sequence | PBM E-score |
| --- | --- | --- |
| 91 | ACAGAAGT | -0.0546 |
| 92 | CCGTAAAC | 0.00547 |
| 93 | CCATGGAC | 0.00514 |
| 94 | GCCAGCCC | -0.209 |
| 95 | ATGTGGGA | -0.0781 |

Additional records follow.

Row | Sequence | PBM E-score
101 | CTTGACAA | 0.00685
102 | GGCCTGAC | -0.0513
103 | ACATTAGG | -0.103
104 | AAGCTCGT | -0.0751
105 | ATTCTTTC | 0.0726
106 | GAGCGAGA | 0.206
107 | GACAAGCA | -0.0713
108 | CACTGGAA | -0.0187
109 | ACTGGAAA | 0.00431
110 | ACATGGTA | -0.0687
111 | AATTATCC | -0.0109
112 | CAAGGGCA | -0.0577
113 | ACGCCATC | 0.0173
114 | ATGAGACC | 0.105
115 | ATCAAAGG | -0.0171
116 | CCACCGAA | 0.0334
117 | ATTCATGA | 0.0232
118 | GTGTAATA | 0.0595
119 | ATGGCCAA | -0.0541
120 | GCGGGCCA | -0.166
121 | CTCTTGTC | 0.0639
122 | AGATTTAG | 0.119
123 | TACATTAA | 0.144
124 | TACTGGGA | -0.0926
125 | ACCCGAGG | 0.0233

Row | Sequence | PBM E-score
126 | AGCGAGGG | -0.0677
127 | CGAAAGAA | 0.105
128 | AGTGCGAC | -0.093
129 | TGTGTTAA | 0.0274
130 | ATGGTTTA | 0.027
131 | CCATTATA | 0.0657
132 | CTCGTTGC | 0.212
133 | GTACACAA | 0.0665
134 | GTACAACA | 0.0729
135 | CATGCCGG | 0.0656
136 | ATACATGC | -0.0508
137 | CGCGTTCA | 0.159
138 | GCAGGAAC | -0.0336
139 | CTATGACA | -0.012
140 | CGTCTTGA | -0.0247
141 | ACGATGGC | 0.0109
142 | AACAGAAA | -0.0499
143 | AGCATTAG | -0.0537
144 | ATCGTTGA | 0.0447
145 | CACCTTAG | -0.113
146 | ATCGTCAA | -0.0792
147 | ACCCACGT | 0.0168
148 | CTCTCTGC | -0.0868
149 | AAACGGTA | 0.137
150 | ACATTTAT | 0.00924

Row | Sequence | PBM E-score
151 | GCTCTTTA | -0.00187
152 | ACTGAGAA | -0.0694
153 | GCAACCCC | -0.148
154 | ACGGACTC | -0.13
155 | CGGGATTA | 0.205
156 | ATAAATGG | 0.0175
157 | ATGACGAG | -0.0444
158 | CGTATCCA | -0.155
159 | GAATAGTA | 0.156
160 | AACACGCC | -0.0502
161 | GGATAAGA | 0.0874
162 | AGTAAATC | 0.227
163 | AAGATTGA | -0.00425
164 | GAAATGTC | -0.04
165 | CGGACAAG | 0.122
166 | CACTCCCG | -0.163
167 | CTAAGAAG | 0.0476
168 | GAGCGACC | -0.168
169 | CAAACCCA | 0.132
170 | GCTAGTGA | 0.0833
171 | AGTACCAC | 0.0108
172 | ACCCTCAT | 0.00139
173 | CGGCGCAG | -0.0724
174 | CCGGTTAG | -0.0403
175 | ATACTCCG | 0.109

A few values from the entries so far:
Value for CCGTAAAC under PBM E-score: 0.00547
Value for ACCAATAG under PBM E-score: -0.169
Value for CGAGCCTC under PBM E-score: -0.209

(list continues)

Row | Sequence | PBM E-score
176 | TAACAGGA | 0.0311
177 | AACGAGTG | -0.052
178 | CACGCATC | -0.0811
179 | CGAAATGC | 0.109
180 | GCCGATAC | 0.0979
181 | CAACAATA | 0.11
182 | ACCCCCCT | -0.405
183 | AGGATTCA | -0.0415
184 | TACTGTCA | 0.175
185 | CTACCGAA | -0.136
186 | CTGGAGTC | -0.228
187 | CTCCAAGA | 0.036
188 | CGCCTAAC | 0.0838
189 | ACTTCCCG | -0.00327
190 | AGTTAGGA | 0.0365
191 | GGCTAGTA | 0.127
192 | ACCCTCGT | 0.0561
193 | CATGGTAA | 0.0831
194 | AATTGCGC | 0.187
195 | CTTTCCAC | -0.00076
196 | ACGTATAC | 0.124
197 | GTGCGACA | -0.126
198 | AGGAATGA | -0.0278
199 | ACGCAAGT | -0.138
200 | AGTTAGTC | -0.1

Part of the list above, with tabs.
Row	Sequence	PBM E-score
35	AAAAGGAA	-0.0391
36	GGGCCAAC	-0.13
37	CTTTGGCA	-0.295
38	AACAGGAT	0.00796
39	CCAATGTC	-0.167
40	ACCGGACC	-0.13

(list continues)

Row | Sequence | PBM E-score
201 | CATGGCAC | -0.0253
202 | CGCGGGAC | 0.176
203 | AACATTGA | -0.00836
204 | CCACTCGA | 0.119
205 | CGTGAGAA | -0.00035
206 | CGTATCGA | -0.032
207 | CGTGGGCA | -0.232
208 | CACTTCCG | -0.0433
209 | GACCATCA | -0.04
210 | CAAGTTGA | -0.0127
211 | CTGCCGCC | -0.278
212 | GTTGCCTA | 0.0763
213 | AAAGTTAA | 0.00078
214 | ACTTATAC | 0.0119
215 | AACGGCAG | 0.117
216 | AAGTAAGT | -0.0409
217 | GATCTCGC | 0.144
218 | CAATTCTC | -0.053
219 | ATTGTGTC | 0.212
